{
  "source": "PubChem BioAssay AID2685",
  "about": "(National Center for Advancing Translational Sciences (NCATS), 2010)",
  "assay": "qHTS Assay for Lipid Storage Modulators in Drosophila S3 Cells;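 for cell number change: cells counted by Cell Tracker Red CMTPX staining in the red channel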",
  "conditions": "BODIPY lipid droplet fluorescence, 18-24 h; for cell number change: measured here: cell count max response, cells fed with added oleic acid",
  "in_short": "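Drosophila S3 cells loaded with oleic acid (400 uM, as added) and compounds at several concentrations; lipid droplets imaged by 488-nm laser-scanning cytometry, 500–530 nm intensity and object ratio to cell channel. Percent activity normalized to 20 uM Triacsin C.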",
  "key": {"[1]": {"conditions": "measured here: cell number channel AC50, cells fed with added oleic acid"}, "[2]": {"conditions": "measured here: lipid fluorescence (Fed channel) AC50, cells fed with added oleic acid"}},
  "note": "The list shows a part of the results. The main result of the screen is listed elsewhere. These columns were measured beside it and carry no call. Most of these compounds were active or inconclusive in the main read-out, so they are no random draw. Words in brackets tell the shape of the fitted curve; partial curves, single points and poor fits give uncertain potencies.",
  "data": [
    {"smiles": "Cc1ccc(NC(=O)/C=C/c2ccc3c(c2)OCO3)cc1S(=O)(=O)N1CCOCC1", "values": [
      {"measurement": "cell number change", "value": -43.7, "unit": "%"},
      {"measurement": "AC50", "setting": "[1]", "value": "25.9 µM [falling, single point]"},
      {"measurement": "AC50", "setting": "[2]", "value": "0.058 µM [falling, full curve]"}
    ]},
    {"smiles": "COc1ccc2nc3oc(C(=O)NCc4cccs4)cc3cc2c1", "values": [
      {"measurement": "cell number change", "value": 9.77, "unit": "%"}
    ]},
    {"smiles": "COCCCNC(=O)/C=C/c1c(Cl)cccc1Cl", "values": [
      {"measurement": "AC50", "setting": "[2]", "value": "0.82 µM [rising, full curve, poor fit]"}
    ]},
    {"smiles": "COc1cccc(-n2cnc3c(sc4nc(N5CCOCC5)c5c(c43)CCCC5)c2=O)c1", "values": [
      {"measurement": "cell number change", "value": 5.19, "unit": "%"},
      {"measurement": "AC50", "setting": "[1]", "value": "2.31 µM [rising, single point]"},
      {"measurement": "AC50", "setting": "[2]", "value": "6.51 µM [rising, single point]"}
    ]},
    {"smiles": "Cc1cc(C)n(-c2ccc(C(=O)Nc3nnc(C)s3)cc2)n1", "values": [
      {"measurement": "AC50", "setting": "[2]", "value": "0.58 µM [rising, single point]"}
    ]},
    {"smiles": "Cc1cc(C(=O)N2CCCC(N3CCN(c4cccc(Cl)c4)CC3)C2)n(C)n1", "note": "(stereo not given)", "values": [
      {"measurement": "cell number change", "value": 42.2, "unit": "%"},
      {"measurement": "AC50", "setting": "[1]", "value": "3.66 µM [rising, full curve]"}
    ]},
    {"smiles": "COc1cc(NC(=O)Cc2ccccc2)ccc1NC(=O)Cc1ccccc1", "values": [
      {"measurement": "cell number change", "value": 37, "unit": "%"},
      {"measurement": "AC50", "setting": "[1]", "value": "20.6 µM [rising, single point]"},
      {"measurement": "AC50", "setting": "[2]", "value": "0.82 µM [rising, full curve]"}
    ]},
    {"smiles": "CN(c1ccc(OCC(=O)N2CCCCC2)cc1)S(=O)(=O)c1cccs1", "values": [
      {"measurement": "cell number change", "value": 78.9, "unit": "%"},
      {"measurement": "AC50", "setting": "[1]", "value": "20.6 µM [rising, partial curve, poor fit]"},
      {"measurement": "AC50", "setting": "[2]", "value": "3.66 µM [rising, single point]"}
    ]},
    {"smiles": "O=C(CSc1nnc2sc3ccccc3n12)N1CCN(c2ccccc2)CC1", "values": [
      {"measurement": "cell number change", "value": 271, "unit": "%"},
      {"measurement": "AC50", "setting": "[1]", "value": "29.1 µM [rising, single point]"}
    ]},
    {"smiles": "CCOc1cc(C(=O)N/N=C(\\C)Cc2ccc(OC)cc2)cc(OCC)c1OCC", "values": [
      {"measurement": "cell number change", "value": 6.38, "unit": "%"}
    ]},
    {"smiles": "Cc1ccc(NS(=O)(=O)c2ccc3[nH]c(=O)oc3c2)cc1Cl", "values": [
      {"measurement": "cell number change", "value": -33.1, "unit": "%"},
      {"measurement": "AC50", "setting": "[1]", "value": "13 µM [falling, partial curve]"},
      {"measurement": "AC50", "setting": "[2]", "value": "0.651 µM [falling, full curve]"}
    ]},
    {"smiles": "COC(=NC(C)C)NC(C)C", "values": [
      {"measurement": "cell number change", "value": 5.44, "unit": "%"},
      {"measurement": "AC50", "setting": "[2]", "value": "3.66 µM [falling, full curve]"}
    ]},
    {"smiles": "Cc1c(OC(C(=O)O)c2ccccc2)ccc2c1oc(=O)c1ccccc12", "note": "(stereo not given)", "values": [
      {"measurement": "cell number change", "value": 15.5, "unit": "%"},
      {"measurement": "AC50", "setting": "[2]", "value": "29.1 µM [rising, single point]"}
    ]},
    {"smiles": "C/C(=N\\NC(=O)Cc1ccc(Cl)cc1)c1ccc(F)cc1", "values": [
      {"measurement": "cell number change", "value": -11.3, "unit": "%"},
      {"measurement": "AC50", "setting": "[2]", "value": "6.51 µM [falling, single point]"}
    ]},
    {"smiles": "Cc1[nH]n(-c2ccc([N+](=O)[O-])cc2)c(=O)c1C=NCCN1CCN(C(=O)c2ccccc2)CC1", "values": [
      {"measurement": "cell number change", "value": 81.7, "unit": "%"},
      {"measurement": "AC50", "setting": "[1]", "value": "14.6 µM [rising, partial curve]"},
      {"measurement": "AC50", "setting": "[2]", "value": "20.6 µM [rising, partial curve]"}
    ]},
    {"smiles": "COc1ccccc1OCc1cc(C(=O)N2CC3C[C@@H]4CC2C[C@H](C3)C4)no1", "values": [
      {"measurement": "cell number change", "value": -50.5, "unit": "%"},
      {"measurement": "AC50", "setting": "[1]", "value": "23.1 µM [falling, partial curve]"},
      {"measurement": "AC50", "setting": "[2]", "value": "20.6 µM [falling, single point]"}
    ]},
    {"smiles": "Clc1cccc(CSc2nc3ccncc3[nH]2)c1", "values": [
      {"measurement": "cell number change", "value": 1.44, "unit": "%"},
      {"measurement": "AC50", "setting": "[2]", "value": "29.1 µM [rising, single point]"}
    ]},
    {"smiles": "NC(=O)CN1C(=O)C2CCCCN2C(=O)c2ccccc21", "note": "(stereo not given)", "values": [
      {"measurement": "cell number change", "value": -1.26, "unit": "%"},
      {"measurement": "AC50", "setting": "[2]", "value": "4.11 µM [rising, single point]"}
    ]},
    {"smiles": "Cc1ccc(-n2nc3c(=O)n(CCCC(=O)NCc4ccc(F)cc4)nc(C)c3c2C)cc1", "values": [
      {"measurement": "cell number change", "value": 5.34, "unit": "%"},
      {"measurement": "AC50", "setting": "[2]", "value": "11.6 µM [falling, single point]"}
    ]},
    {"smiles": "COc1ccc(OCC2c3cc(OC)c(OC)cc3CCN2C(=O)C(C)C)cc1", "note": "(stereo not given)", "values": [
      {"measurement": "cell number change", "value": -2.22, "unit": "%"},
      {"measurement": "AC50", "setting": "[2]", "value": "29.1 µM [falling, single point]"}
    ]},
    {"smiles": "O=C(NNC(=O)c1ccccc1Br)c1ccccc1Cl", "values": [
      {"measurement": "cell number change", "value": -38, "unit": "%"},
      {"measurement": "AC50", "setting": "[1]", "value": "29.1 µM [falling, single point]"}
    ]},
    {"smiles": "CC(C)n1cc(/C=C/c2cc[n+](C)cc2)c2ccccc21", "values": [
      {"measurement": "cell number change", "value": -80.7, "unit": "%"},
      {"measurement": "AC50", "setting": "[1]", "value": "29.1 µM [falling, single point]"},
      {"measurement": "AC50", "setting": "[2]", "value": "8.2 µM [falling, partial curve]"}
    ]},
    {"smiles": "CC(C)COc1ccc(C(=O)N/C(=C\\c2cccc([N+](=O)[O-])c2)C(=O)O)cc1", "values": [
      {"measurement": "cell number change", "value": -1.85, "unit": "%"},
      {"measurement": "AC50", "setting": "[2]", "value": "0.651 µM [falling, single point]"}
    ]},
    {"smiles": "CCn1c(N2CCC(Cc3ccccc3)CC2)nc2c1c(=O)[nH]c(=O)n2C", "values": [
      {"measurement": "cell number change", "value": -11.2, "unit": "%"}
    ]},
    {"smiles": "NC(=O)NCCN1CCN(c2ncc(C(F)(F)F)cc2Cl)CC1", "values": [
      {"measurement": "cell number change", "value": -29.9, "unit": "%"},
      {"measurement": "AC50", "setting": "[1]", "value": "0.58 µM [falling, full curve, poor fit]"}
    ]},
    {"smiles": "CSc1nsc(SCC(=O)Nc2ccc(O)c(C(=O)O)c2)n1", "values": [
      {"measurement": "cell number change", "value": 10.3, "unit": "%"},
      {"measurement": "AC50", "setting": "[2]", "value": "29.1 µM [rising, single point]"}
    ]},
    {"smiles": "CC(Sc1ccc(S(=O)(=O)N2CCOCC2)cc1[N+](=O)[O-])C(=O)O", "note": "(stereo not given)", "values": [
      {"measurement": "cell number change", "value": 55.9, "unit": "%"},
      {"measurement": "AC50", "setting": "[1]", "value": "0.116 µM [rising, full curve]"},
      {"measurement": "AC50", "setting": "[2]", "value": "0.0731 µM [rising, full curve, poor fit]"}
    ]},
    {"smiles": "CCOc1cc(-c2noc(N)c2C(=O)OC)cc(OCC)c1OCC", "values": [
      {"measurement": "cell number change", "value": -31.7, "unit": "%"},
      {"measurement": "AC50", "setting": "[1]", "value": "0.184 µM [falling, full curve]"},
      {"measurement": "AC50", "setting": "[2]", "value": "0.231 µM [falling, full curve, poor fit]"}
    ]},
    {"smiles": "Cc1cc([N+](=O)[O-])cc2c1NCC1CC=CC21", "note": "(stereo not given)", "values": [
      {"measurement": "AC50", "setting": "[2]", "value": "29.1 µM [falling, single point]"}
    ]},
    {"smiles": "Cc1nc(N)c(Cc2ccc(Cl)cc2Cl)c(N)n1", "values": [
      {"measurement": "cell number change", "value": -14.6, "unit": "%"},
      {"measurement": "AC50", "setting": "[2]", "value": "0.58 µM [falling, full curve, poor fit]"}
    ]},
    {"smiles": "O=P1(c2ccccc2)C=Cn2c1cc1c2CCCC1", "note": "(stereo not given)", "values": [
      {"measurement": "cell number change", "value": 3.68, "unit": "%"}
    ]},
    {"smiles": "c1ccc(CSc2nc3ncccn3n2)cc1", "values": [
      {"measurement": "cell number change", "value": -9.84, "unit": "%"},
      {"measurement": "AC50", "setting": "[2]", "value": "25.9 µM [rising, single point]"}
    ]},
    {"smiles": "O=c1c2ccccc2oc2cc(OCc3ccc(F)cc3)cc(O)c12", "values": [
      {"measurement": "cell number change", "value": 24.3, "unit": "%"}
    ]},
    {"smiles": "COc1ccc(S(=O)(=O)N2CCN(C(=O)CCC3CCCC3)CC2)cc1", "values": [
      {"measurement": "cell number change", "value": 8.83, "unit": "%"},
      {"measurement": "AC50", "setting": "[2]", "value": "6.51 µM [rising, partial curve, poor fit]"}
    ]},
    {"smiles": "NC(=O)c1c[nH]c2ccccc12", "values": [
      {"measurement": "AC50", "setting": "[1]", "value": "0.461 µM [falling, single point]"}
    ]},
    {"smiles": "O=C(Cn1c2[n+](c3ccc(C(F)(F)F)cc31)CCCCC2)c1cccc([N+](=O)[O-])c1", "values": [
      {"measurement": "AC50", "setting": "[1]", "value": "0.58 µM [rising, single point]"},
      {"measurement": "AC50", "setting": "[2]", "value": "0.58 µM [rising, single point]"}
    ]},
    {"smiles": "CC1(C)Cc2c(c(N3CCOCC3)nc3snc(Br)c23)CO1", "values": [
      {"measurement": "cell number change", "value": 8.12, "unit": "%"}
    ]},
    {"smiles": "CC[C@@H](C)[C@@H](C(=O)N1CCN(C(=O)OC(C)(C)C)CC1)n1cc(CCC(=O)O)nn1", "values": [
      {"measurement": "AC50", "setting": "[2]", "value": "6.51 µM [falling, single point]"}
    ]}
  ]
}
